Experimental data taken from publication PMC3410853 (PLoS Pathogens, 2012).
Results are given in words; binding and its absence hold for the method and conditions named. Some results given as binding are weak or reduced against the parent protein; the word gives no strength.

Key:
[1] = biological target: engineered soluble pAPN (ectodomain, residues 36 to 963) (porcine) (UniProt P15145); experiment: crystal structure; both purified
[2] = biological target: engineered soluble pAPN (ectodomain, residues 36 to 963) (porcine) (UniProt P15145); experiment: crystal structure; two crystal structures of the pAPN ectodomain alone, crystallized using distinct conditions (not shown); both purified

B1: engineered soluble pAPN (ectodomain, residues 36 to 963) (domain or fragment)
chain: EKNKNAEHVPQAPTSPTITTTAAITLDQSKPWNRYRLPTTLLPDSYNVTLRPYLTPNADGLYIFKGKSIVRLLCQEPTDVIIIHSKKLNYTTQGHMVVLRGVGDSQVPEIDRTELVELTEYLVVHLKGSLQPGHMYEMESEFQGELADDLAGFYRSEYMEGNVKKVLATTQMQSTDARKSFPCFDEPAMKATFNITLIHPNNLTALSNMPPKGSSTPLAEDPNWSVTEFETTPVMSTYLLAYIVSEFQSVNETAQNGVLIRIWARPNAIAEGHGMYALNVTGPILNFFANHYNTSYPLPKSDQIALPDFNAGAMENWGLVTYRENALLFDPQSSSISNKERVVTVIAHELAHQWFGNLVTLAWWNDLWLNEGFASYVEYLGADHAEPTWNLKDLIVPGDVYRVMAVDALASSHPLTTPAEEVNTPAQISEMFDSISYSKGASVIRMLSNFLTEDLFKEGLASYLHAFAYQNTTYLDLWEHLQKAVDAQTSIRLPDTVRAIMDRWTLQMGFPVITVDTKTGNISQKHFLLDSESNVTRSSAFDYLWIVPISSIKNGVMQDHYWLRDVSQAQNDLFKTASDDWVLLNVNVTGYFQVNYDEDNWRMIQHQLQTNLSVIPVINRAQVIYDSFNLATAHMVPVTLALDNTLFLNGEKEYMPWQAALSSLSYFSLMFDRSEVYGPMKKYLRKQVEPLFQHFETLTKNWTERPENLMDQYSEINAISTACSNGLPQCENLAKTLFDQWMSDPENNPIHPNLRSTIYCNAIAQGGQDQWDFAWGQLQQAQLVNEADKLRSALACSNEVWLLNRYLGYTLNPDLIRKQDATSTINSIASNVIGQPLAWDFVQSNWKKLFQDYGGGSFSFSNLIQGVTRRFSSEFELQQLEQFKKNNMDVGFGSGTRALEQALEKTKANIKWVKENKEVVLNWFIEHS
Which results are given for B1?
binding [1]: binds; binding [2]: binds
